Values from PubChem BioAssay AID602196 (INSERM, 2012)
This is a random part of about 23,000 reagents. Over the whole deposit, 455 (2%) are marked active. 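Active includes both protection and sensitisation; some change values fall well beyond the stated -50 to +50 range.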 Further read-outs or replicates are left out here. Reagent sequences are not shown. Not stated in the record: the amount of reagent.

Test: 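Genes whose knock-down alters cisplatin killing of lung cancer cells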
System: human A549 lung cancer cells
Reagent: siRNA pair against human genes
Duration: 48 h transfection before cisplatin; time from cisplatin to read-out not stated
Conditions: cisplatin at a dose killing half of control-siRNA cells; exact dose and duration not given
Measured: 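Shift in cisplatin death relative to control siRNA, from -50 (all cells die) to +50 (no cells die); siRNAs harmful on their own scored 0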
Direction: two-siRNA summed score (-2 to +2): higher = both siRNAs protect from cisplatin killing; -2 means both sensitise; mean protection from cisplatin (shift in death): higher = protection from cisplatin killing
Rule for the call: 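siRNAs harmful alone (LDH or WST-1) get 0; others get +1 for less and -1 for more cisplatin killing; genes are active when the two siRNAs give the same sign, summing to ±2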
Meaning of the calls: active = both siRNAs shift cisplatin killing the same way; inactive = no consistent shift, or siRNA harmful alone

The first 4 records, to show the layout:
| gene knocked down | two-siRNA summed score (-2 to +2) | mean protection from cisplatin (shift in death) (%) | outcome |
| --- | --- | --- | --- |
| FKBP1A | 0 | 3.6 | inactive |
| CNOT3 | 0 | 1.9 | inactive |
| VCAM1 | 1 | -0.5 | inactive |
| HACD2 | 0 | 20.3 | inactive |

Results, from the first entry:
| gene knocked down | two-siRNA summed score (-2 to +2) | mean protection from cisplatin (shift in death) (%) | outcome |
| --- | --- | --- | --- |
| FKBP1A | 0 | 3.6 | inactive |
| CNOT3 | 0 | 1.9 | inactive |
| VCAM1 | 1 | -0.5 | inactive |
| HACD2 | 0 | 20.3 | inactive |
| NTF3 | 1 | 14.2 | inactive |
| FLJ21438 | 1 | 12.6 | inactive |
| RBFA | 0 | 8.4 | inactive |
| SND1 | 0 | -2.2 | inactive |
| PAGE1 | 0 | 4.6 | inactive |
| LOC441199 | 0 | 6.9 | inactive |
| LOC440957 | 0 | -0.4 | inactive |
| DVL3 | 0 | -9.3 | inactive |
| FAM50A | 0 | 24.5 | inactive |
| CNTN4 | 1 | 21.7 | inactive |
| ARHGEF11 | 0 | 2 | inactive |
| SVBP | 0 | 31.1 | inactive |
| PRPF38A | 0 | 2.1 | inactive |
| TH | 0 | 5.5 | inactive |
| ZNF33B | 0 | 7.1 | inactive |
| LOC283464 | 0 | 11.9 | inactive |
| PELO | 0 | 6 | inactive |
| ANKRD1 | 0 | -5 | inactive |
| BEX3 | 0 | -10.9 | inactive |
| LOC440482 | 0 | 0.9 | inactive |
| LOC285679 | 0 | 25.6 | inactive |
| CKAP2 | -2 | -32.4 | active |
| PDE1C | -1 | 2.2 | inactive |
| ZNF804A | 0 | -4.1 | inactive |
| LOC284379 | 0 | 7.6 | inactive |
| LOC389150 | 1 | 15.9 | inactive |
| MBD5 | 0 | -2.2 | inactive |
| LOC441952 | 1 | 15.5 | inactive |
| SMARCA4 | 0 | -5.6 | inactive |
| STARD3NL | 0 | 10.9 | inactive |
| MIMS2 | 0 | 9.8 | inactive |
| HNRNPDL | 0 | 9.5 | inactive |
| LOC391062 | 0 | 9.5 | inactive |
| FGD3 | 0 | 1.8 | inactive |
| FAM201A | 1 | 23.9 | inactive |
